Results from cells or extracts need not show a direct contact.

By UniProt entry, the sequences of proteins in these tests, tags left out.
UniProt Q9BZS1, whole entry: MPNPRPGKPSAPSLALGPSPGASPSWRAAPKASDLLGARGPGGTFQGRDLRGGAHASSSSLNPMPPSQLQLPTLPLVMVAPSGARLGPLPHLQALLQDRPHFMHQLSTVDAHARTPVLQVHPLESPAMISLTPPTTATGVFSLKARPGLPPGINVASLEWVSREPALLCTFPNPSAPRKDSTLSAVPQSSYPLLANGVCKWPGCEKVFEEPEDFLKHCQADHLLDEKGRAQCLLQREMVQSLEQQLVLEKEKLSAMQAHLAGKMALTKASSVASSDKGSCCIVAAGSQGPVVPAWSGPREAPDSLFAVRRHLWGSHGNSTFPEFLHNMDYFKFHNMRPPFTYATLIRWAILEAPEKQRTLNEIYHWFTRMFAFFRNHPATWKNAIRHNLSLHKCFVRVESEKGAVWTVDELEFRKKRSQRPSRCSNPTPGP

The source of these data is patent US20120171701.

The target of the data set is FOXP3 (Homo sapiens) (UniProt Q9BZS1). In words: EMSA. As to conditions: Treg nuclear extract; protein in an extract; label: fluorescent dye.

Turning to “GTATACAGTATGCAAACATAACTCACCATT (double strand) [SATB1 intron 2 FOXP3 binding site EMSA oligo]”, the binding result was “binds”.
